Data on 1 substance can be found in PMC9643838.

Sequences of proteins named here, by UniProt entry; tags and fusion partners are left off. Residues count along the entry.
UniProt P00451, residues 2041-2351: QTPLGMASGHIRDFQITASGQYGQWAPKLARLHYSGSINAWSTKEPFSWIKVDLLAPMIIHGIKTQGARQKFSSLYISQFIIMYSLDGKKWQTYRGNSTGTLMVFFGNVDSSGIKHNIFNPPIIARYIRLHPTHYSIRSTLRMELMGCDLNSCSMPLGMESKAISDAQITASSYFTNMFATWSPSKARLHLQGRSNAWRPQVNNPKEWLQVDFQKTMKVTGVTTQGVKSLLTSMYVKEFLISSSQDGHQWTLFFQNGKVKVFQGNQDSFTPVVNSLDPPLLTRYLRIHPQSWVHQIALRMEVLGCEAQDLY

These are yes or no findings as the source states them, for the method shown.

The target of this test is human factor VIII C1C2 domains, wildtype (human) (UniProt P00451). In words: SEC; purified wildtype C1C2 at 225 mM NaCl; test for higher order oligomers; both purified.

For the substance “human factor VIII C1C2 domains, wildtype (from UniProt P00451 2041-2351) (domain or fragment)”, the binding result is reported as “no binding”.
